# According to the supplement of paper PMC10849652:
# Chains of the proteins cited; added tags and fusions are not shown. Lines headed by an entry give the natural chain unless they say otherwise; changes in a name come on top.
# UniProt Q15631: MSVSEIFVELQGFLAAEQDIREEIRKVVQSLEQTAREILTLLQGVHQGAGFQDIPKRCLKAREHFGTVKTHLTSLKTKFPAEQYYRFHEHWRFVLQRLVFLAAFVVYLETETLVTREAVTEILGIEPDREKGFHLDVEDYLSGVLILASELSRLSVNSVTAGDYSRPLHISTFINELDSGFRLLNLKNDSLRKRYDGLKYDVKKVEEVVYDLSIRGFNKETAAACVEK
# UniProt O60637: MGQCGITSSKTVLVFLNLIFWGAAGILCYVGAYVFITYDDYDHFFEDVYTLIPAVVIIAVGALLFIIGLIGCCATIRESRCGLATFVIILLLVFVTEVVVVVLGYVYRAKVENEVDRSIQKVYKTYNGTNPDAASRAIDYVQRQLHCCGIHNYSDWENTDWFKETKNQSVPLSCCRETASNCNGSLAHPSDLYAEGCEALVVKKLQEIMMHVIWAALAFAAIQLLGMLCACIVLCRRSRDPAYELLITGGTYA
# UniProt Q8N2K1: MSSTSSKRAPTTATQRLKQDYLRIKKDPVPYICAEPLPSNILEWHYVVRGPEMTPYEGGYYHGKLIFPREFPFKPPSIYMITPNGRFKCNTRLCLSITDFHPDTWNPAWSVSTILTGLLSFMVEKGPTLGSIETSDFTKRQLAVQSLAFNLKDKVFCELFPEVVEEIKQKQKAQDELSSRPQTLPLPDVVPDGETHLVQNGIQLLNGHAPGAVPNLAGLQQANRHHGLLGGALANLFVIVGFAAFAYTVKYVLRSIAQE
# UniProt Q13885, whole entry, looked up: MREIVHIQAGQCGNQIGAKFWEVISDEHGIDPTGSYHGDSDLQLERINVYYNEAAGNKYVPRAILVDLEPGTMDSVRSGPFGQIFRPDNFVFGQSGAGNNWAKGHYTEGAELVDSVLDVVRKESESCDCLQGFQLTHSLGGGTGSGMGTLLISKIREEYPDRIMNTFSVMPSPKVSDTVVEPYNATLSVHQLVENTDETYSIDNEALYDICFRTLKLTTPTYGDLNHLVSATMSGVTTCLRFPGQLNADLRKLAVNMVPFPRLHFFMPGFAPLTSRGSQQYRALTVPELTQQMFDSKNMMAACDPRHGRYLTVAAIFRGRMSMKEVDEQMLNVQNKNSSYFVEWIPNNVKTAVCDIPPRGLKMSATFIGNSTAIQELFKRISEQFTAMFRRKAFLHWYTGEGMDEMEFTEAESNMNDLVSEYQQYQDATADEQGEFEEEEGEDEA
# UniProt Q7Z7E8: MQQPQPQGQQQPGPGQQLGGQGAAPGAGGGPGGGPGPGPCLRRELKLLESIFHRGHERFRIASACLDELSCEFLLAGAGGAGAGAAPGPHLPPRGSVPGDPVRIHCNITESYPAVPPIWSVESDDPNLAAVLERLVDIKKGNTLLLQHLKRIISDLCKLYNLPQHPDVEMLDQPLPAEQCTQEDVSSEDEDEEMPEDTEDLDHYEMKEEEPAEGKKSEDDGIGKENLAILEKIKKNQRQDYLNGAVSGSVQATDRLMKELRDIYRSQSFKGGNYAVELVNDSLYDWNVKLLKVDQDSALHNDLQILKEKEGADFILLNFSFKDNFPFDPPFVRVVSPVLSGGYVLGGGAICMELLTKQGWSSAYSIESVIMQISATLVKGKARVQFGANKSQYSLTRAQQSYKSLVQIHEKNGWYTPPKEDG
# UniProt P51668: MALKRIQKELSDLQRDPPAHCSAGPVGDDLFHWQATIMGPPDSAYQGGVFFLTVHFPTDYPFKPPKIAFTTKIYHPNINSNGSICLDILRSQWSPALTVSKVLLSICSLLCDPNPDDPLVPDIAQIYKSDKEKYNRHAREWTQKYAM
# UniProt Q96N46: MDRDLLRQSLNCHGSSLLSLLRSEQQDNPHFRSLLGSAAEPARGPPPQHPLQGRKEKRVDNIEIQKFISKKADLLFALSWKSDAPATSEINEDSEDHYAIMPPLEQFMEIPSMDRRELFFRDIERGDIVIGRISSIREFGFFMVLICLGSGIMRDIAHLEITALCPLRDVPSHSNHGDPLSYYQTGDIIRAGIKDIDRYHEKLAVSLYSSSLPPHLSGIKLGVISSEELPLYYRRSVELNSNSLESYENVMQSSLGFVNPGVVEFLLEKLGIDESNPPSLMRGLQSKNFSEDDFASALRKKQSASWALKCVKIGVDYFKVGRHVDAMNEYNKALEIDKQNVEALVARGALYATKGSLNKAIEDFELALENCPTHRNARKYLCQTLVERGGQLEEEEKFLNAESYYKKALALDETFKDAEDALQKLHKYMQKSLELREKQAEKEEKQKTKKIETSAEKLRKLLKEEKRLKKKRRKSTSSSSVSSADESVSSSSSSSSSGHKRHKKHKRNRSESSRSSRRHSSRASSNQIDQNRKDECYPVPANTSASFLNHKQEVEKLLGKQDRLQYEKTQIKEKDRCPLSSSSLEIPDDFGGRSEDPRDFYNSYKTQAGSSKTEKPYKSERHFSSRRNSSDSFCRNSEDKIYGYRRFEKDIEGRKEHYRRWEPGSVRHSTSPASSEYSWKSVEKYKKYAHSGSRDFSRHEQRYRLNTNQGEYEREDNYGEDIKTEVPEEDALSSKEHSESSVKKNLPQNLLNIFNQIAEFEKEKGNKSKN
# UniProt Q96RT8, whole entry, looked up: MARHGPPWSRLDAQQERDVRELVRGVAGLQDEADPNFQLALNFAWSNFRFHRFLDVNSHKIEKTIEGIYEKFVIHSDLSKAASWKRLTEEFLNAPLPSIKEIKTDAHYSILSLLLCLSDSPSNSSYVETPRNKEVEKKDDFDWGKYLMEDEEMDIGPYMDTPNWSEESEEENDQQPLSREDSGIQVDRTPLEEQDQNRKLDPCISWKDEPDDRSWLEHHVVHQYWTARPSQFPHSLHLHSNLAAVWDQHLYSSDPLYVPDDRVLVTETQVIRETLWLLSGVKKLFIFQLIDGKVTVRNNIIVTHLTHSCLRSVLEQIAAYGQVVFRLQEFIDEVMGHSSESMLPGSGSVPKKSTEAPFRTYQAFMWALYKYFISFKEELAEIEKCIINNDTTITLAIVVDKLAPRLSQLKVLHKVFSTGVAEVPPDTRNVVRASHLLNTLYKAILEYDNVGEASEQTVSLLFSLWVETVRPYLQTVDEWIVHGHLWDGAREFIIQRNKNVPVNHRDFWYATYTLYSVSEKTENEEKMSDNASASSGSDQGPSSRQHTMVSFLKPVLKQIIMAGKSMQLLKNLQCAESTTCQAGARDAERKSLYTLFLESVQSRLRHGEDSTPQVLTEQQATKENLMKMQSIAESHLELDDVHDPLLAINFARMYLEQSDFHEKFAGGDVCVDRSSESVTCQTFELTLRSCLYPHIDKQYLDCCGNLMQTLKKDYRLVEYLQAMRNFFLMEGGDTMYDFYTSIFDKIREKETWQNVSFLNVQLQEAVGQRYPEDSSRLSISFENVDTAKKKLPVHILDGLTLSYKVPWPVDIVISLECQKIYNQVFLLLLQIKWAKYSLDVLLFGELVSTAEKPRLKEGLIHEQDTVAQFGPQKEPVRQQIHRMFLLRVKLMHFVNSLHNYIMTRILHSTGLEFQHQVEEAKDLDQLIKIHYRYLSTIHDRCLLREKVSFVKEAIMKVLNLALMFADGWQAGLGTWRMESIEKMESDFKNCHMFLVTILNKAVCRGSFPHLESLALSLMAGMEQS
# UniProt O14817: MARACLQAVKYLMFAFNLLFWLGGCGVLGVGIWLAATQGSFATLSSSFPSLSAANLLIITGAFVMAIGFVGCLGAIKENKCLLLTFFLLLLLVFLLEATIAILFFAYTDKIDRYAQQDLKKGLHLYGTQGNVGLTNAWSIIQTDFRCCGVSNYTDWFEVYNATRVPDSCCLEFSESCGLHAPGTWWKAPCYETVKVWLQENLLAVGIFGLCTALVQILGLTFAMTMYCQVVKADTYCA
# UniProt Q96FV3: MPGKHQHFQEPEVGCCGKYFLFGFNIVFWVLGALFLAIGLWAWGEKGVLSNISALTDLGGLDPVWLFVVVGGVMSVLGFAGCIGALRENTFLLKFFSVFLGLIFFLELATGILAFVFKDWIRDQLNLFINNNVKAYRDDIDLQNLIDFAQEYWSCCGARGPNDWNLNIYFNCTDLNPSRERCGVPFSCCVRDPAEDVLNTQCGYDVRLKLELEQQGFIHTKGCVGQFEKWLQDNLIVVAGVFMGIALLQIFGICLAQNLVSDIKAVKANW
# UniProt Q96RR1: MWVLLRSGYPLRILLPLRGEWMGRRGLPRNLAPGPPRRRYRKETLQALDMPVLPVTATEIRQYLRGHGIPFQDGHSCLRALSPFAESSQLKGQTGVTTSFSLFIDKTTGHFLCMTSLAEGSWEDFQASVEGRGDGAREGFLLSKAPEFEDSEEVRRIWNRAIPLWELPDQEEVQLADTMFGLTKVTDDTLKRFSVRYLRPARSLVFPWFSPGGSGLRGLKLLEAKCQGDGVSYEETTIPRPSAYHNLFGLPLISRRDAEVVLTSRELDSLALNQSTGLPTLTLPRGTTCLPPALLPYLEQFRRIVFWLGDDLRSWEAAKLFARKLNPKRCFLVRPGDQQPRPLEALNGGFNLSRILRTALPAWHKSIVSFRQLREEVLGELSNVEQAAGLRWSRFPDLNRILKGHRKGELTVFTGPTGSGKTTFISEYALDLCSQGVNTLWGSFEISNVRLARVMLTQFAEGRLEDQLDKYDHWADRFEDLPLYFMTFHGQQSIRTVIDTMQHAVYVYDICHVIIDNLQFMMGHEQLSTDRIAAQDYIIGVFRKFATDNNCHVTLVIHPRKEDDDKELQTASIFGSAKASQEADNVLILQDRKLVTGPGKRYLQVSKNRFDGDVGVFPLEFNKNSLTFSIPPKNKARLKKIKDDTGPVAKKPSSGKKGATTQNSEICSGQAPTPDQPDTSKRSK
# UniProt Q06418: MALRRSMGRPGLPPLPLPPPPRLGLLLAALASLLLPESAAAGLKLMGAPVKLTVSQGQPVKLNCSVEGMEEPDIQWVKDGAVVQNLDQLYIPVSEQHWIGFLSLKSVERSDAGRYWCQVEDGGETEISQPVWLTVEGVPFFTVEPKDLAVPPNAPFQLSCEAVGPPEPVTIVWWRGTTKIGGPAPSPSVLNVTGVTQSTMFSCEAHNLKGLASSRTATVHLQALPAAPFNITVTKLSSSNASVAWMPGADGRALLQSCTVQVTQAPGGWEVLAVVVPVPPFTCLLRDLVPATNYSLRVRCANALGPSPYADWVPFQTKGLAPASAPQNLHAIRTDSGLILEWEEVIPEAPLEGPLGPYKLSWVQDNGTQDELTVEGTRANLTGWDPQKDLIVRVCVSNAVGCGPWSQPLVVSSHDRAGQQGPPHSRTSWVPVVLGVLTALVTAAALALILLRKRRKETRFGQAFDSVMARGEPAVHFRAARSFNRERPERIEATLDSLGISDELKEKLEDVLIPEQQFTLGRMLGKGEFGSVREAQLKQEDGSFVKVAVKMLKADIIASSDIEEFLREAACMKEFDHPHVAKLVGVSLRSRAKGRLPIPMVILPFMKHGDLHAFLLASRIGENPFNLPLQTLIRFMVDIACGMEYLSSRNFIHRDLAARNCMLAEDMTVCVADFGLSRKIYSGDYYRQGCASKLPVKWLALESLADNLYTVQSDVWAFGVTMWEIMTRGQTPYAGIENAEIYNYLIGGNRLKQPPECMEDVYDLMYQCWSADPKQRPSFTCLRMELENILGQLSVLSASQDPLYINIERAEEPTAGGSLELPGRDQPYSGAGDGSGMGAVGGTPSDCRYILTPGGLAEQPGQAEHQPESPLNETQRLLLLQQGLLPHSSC
# UniProt O75896: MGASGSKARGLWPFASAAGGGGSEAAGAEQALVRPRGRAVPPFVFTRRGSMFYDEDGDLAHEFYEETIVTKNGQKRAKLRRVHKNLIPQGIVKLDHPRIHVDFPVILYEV
# UniProt P33981: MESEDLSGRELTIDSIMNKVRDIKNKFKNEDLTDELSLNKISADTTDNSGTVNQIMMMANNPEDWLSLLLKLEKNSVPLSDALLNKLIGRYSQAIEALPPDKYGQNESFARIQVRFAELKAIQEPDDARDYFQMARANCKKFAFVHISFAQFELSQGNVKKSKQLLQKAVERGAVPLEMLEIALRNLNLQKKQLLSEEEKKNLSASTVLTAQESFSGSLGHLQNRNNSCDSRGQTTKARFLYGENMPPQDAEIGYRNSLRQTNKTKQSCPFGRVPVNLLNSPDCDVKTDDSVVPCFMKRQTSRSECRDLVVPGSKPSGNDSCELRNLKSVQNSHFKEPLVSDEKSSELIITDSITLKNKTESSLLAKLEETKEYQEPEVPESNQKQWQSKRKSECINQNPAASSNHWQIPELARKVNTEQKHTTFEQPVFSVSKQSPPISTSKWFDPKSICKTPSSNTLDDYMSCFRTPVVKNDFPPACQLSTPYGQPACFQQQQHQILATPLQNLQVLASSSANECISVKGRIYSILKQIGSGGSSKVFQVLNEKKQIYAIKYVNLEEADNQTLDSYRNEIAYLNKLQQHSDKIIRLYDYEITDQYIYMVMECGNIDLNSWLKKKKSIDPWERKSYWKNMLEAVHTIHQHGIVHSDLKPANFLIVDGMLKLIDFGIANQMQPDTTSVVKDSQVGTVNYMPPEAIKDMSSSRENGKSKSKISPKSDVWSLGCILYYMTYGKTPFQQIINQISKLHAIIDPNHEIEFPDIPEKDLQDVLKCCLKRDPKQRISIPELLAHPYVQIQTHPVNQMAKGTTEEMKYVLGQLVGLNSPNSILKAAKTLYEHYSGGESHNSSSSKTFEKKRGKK
# This is one part of the list.
# Experiments:
# Assay in all cases: log2 fold change, soluble protein after heating vs DMSO (PISA); higher = thermal stabilisation; K562 cells, 10 uM, 30 min; active = over 0.2 and 3.5 SD of the protein, either way, in both replicates (recomputed)
# [1] = compound: NC(=O)Nc1cc(-c2cccc(F)c2)sc1C(=O)N[C@H]1CCCNC1
# Outline: (§1)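 K562 cells (2×10^6 cells/mL) were treated with 10 μM compound for 30 min, and aliquots were heated for 3 min over 48°C-58°C. Pooled aliquots were extracted in PBS with 0.5% NP-40 at 4°C, and the supernatant after 21,000xg for 90 min was measured by TMTpro 16plex LC-MS/MS with channel sums equalised. Reported thermal stability, relative to control samples and from duplicates, is a log2 fold change.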
# [2] = compound: NC(=O)c1cnc(N[C@@H]2CCCC[C@@H]2N)nc1Nc1cccc(-n2nccn2)c1
# Outline: as §1
# [3] = compound: NC1(c2ccc(-c3nc4ccn5c(=O)[nH]nc5c4cc3-c3ccccc3)cc2)CCC1
# Outline: as §1
# [4] = compound: NCC(=O)Nc1ccc(-n2nc(C(F)(F)F)cc2-c2ccc3c(ccc4ccccc43)c2)cc1
# Outline: as §1
# [5] = compound: Nc1ccccc1NC(=O)c1ccc(CNC(=O)OCc2cccnc2)cc1 [entinostat]
# Outline: as §1
# [6] = compound: O=C(CCCCCCC(=O)Nc1ccccc1)NO [vorinostat]
# Outline: as §1
# [7] = compound: O=C(CCCCCCNC(=O)c1cnc(N(c2ccccc2)c2ccccc2Cl)nc1)NO [citarinostat]
# Outline: as §1
# [8] = compound: O=C(O)c1ccc2c(c1)nc(Nc1cccc(Cl)c1)c1ccncc12 [silmitasertib]
# Outline: as §1
# [9] = compound: O=C1NC(=O)C(c2cnc3ccccn23)=C1c1cn2c3c(cc(F)cc13)CN(C(=O)N1CCCCC1)CC2
# Outline: as §1
# [10] = compound: c1cc(OCCN2CCCCC2)cc(-c2n[nH]c3ccc(-c4nnc[nH]4)cc23)c1
# Outline: as §1
Target,log2 fold change [1],log2 fold change [2],log2 fold change [3],log2 fold change [4],log2 fold change [5],log2 fold change [6],log2 fold change [7],log2 fold change [8],log2 fold change [9],log2 fold change [10]
TSN (UniProt Q15631),inactive: 0.093,inactive: 0.027,inactive: 0.021,inactive: 0.075,inactive: 0.01,inactive: 0.007,inactive: -0.011,inactive: -0.08,inactive: 0.006,inactive: 0.002
TTC38 (UniProt Q5R3I4),inactive: 0.038,inactive: 0.113,inactive: -0.263,inactive: -0.09,inactive: 0.111,active: 0.459,inactive: -0.243,inactive: -0.156,inactive: 0.042,inactive: 0.313
TSPAN3 (UniProt O60637),inactive: 0.047,inactive: 0.015,inactive: -0.041,inactive: -0.134,inactive: -0.026,–,inactive: -0.007,inactive: 0.098,–,inactive: -0.044
TTPAL (UniProt Q9BTX7),inactive: -0.04,inactive: -0.067,–,inactive: 0.032,inactive: 0.018,inactive: -0.034,inactive: 0.04,–,inactive: -0.004,inactive: -0.053
UBAC2 (UniProt Q8NBM4),inactive: -0.008,inactive: 0.007,inactive: -0.059,inactive: 0.107,inactive: 0.068,inactive: 0.069,inactive: 0.032,inactive: 0.055,inactive: 0.077,inactive: 0.002
TUBA8 (UniProt Q9NY65),inactive: 0.08,inactive: -0.068,inactive: 0.109,inactive: 0.149,inactive: -0.111,inactive: 0.018,inactive: -0.017,inactive: 0.123,inactive: 0.405,inactive: -0.261
UBE2J2 isoform 3 (UniProt Q8N2K1),inactive: -0.072,inactive: 0.028,–,inactive: 0.213,inactive: -0.067,inactive: 0.156,inactive: 0.1,–,inactive: -0.299,inactive: -0.039
TUBB2A (UniProt Q13885),inactive: -0.012,inactive: 0.03,inactive: 0.01,inactive: 0.024,inactive: -0.005,inactive: 0.013,inactive: -0.019,inactive: -0.05,inactive: -0.018,inactive: -0.016
TUBA1C (UniProt Q9BQE3),inactive: 0.02,inactive: 0.028,inactive: -0.035,inactive: 0.008,inactive: -0.024,inactive: 0.009,inactive: -0.003,inactive: -0.015,inactive: -0.005,inactive: -0.025
UBE2Q1 (UniProt Q7Z7E8),inactive: -0.01,inactive: -0.059,inactive: -0.084,inactive: -0.012,inactive: 0.03,inactive: 0.084,inactive: 0.029,inactive: 0.074,inactive: -0.035,inactive: -0.035
UBE2D3 isoform 3 (UniProt P61077),inactive: 0,inactive: -0.056,inactive: -0.096,inactive: -0.052,inactive: -0.005,inactive: 0.033,inactive: 0.081,inactive: -0.022,inactive: -0.063,inactive: -0.035
TST (UniProt Q16762),inactive: 0.06,inactive: 0.007,inactive: -0.121,inactive: -0.026,inactive: -0.036,–,inactive: 0,inactive: 0.033,inactive: 0.033,inactive: -0.167
UBE2D1 (UniProt P51668),inactive: 0.119,inactive: 0.042,inactive: -0.143,inactive: -0.039,inactive: -0.168,inactive: 0.164,inactive: 0.062,inactive: 0.049,–,inactive: 0.011
TUBB6 (UniProt K7ES63),inactive: -0.058,inactive: -0.158,inactive: -0.272,inactive: -0.117,inactive: -0.09,–,inactive: 0.001,inactive: 0.136,inactive: 0.01,inactive: -0.089
UBE2I (UniProt P63279),inactive: -0.048,inactive: -0.035,inactive: -0.027,inactive: -0.047,inactive: 0.024,inactive: 0.032,inactive: 0.027,inactive: -0.032,inactive: -0.046,inactive: 0.024
TTC13 (UniProt Q8NBP0),inactive: -0.127,inactive: 0.169,–,inactive: -0.126,inactive: 0.113,inactive: 0.182,inactive: 0.025,–,–,inactive: 0.043
TTMP isoform 3 (UniProt Q5BVD1),inactive: 0.042,inactive: -0.154,inactive: -0.016,–,inactive: -0.161,inactive: 0.132,–,inactive: -0.025,inactive: -0.426,–
UBE2G2 (UniProt P60604),inactive: 0.032,inactive: 0.128,inactive: -0.086,inactive: -0.25,inactive: 0.356,inactive: 0.102,inactive: -0.018,inactive: -0.001,–,inactive: -0.098
TUBG1 (UniProt P23258),inactive: -0.014,inactive: 0.014,inactive: 0.009,inactive: 0.035,inactive: -0.01,inactive: 0,inactive: -0.053,inactive: -0.013,inactive: 0.032,inactive: -0.06
UBE2N (UniProt P61088),inactive: -0.071,inactive: -0.052,inactive: -0.045,inactive: -0.02,inactive: 0.093,inactive: -0.072,inactive: 0.01,inactive: 0.013,inactive: -0.135,inactive: -0.034

Target,log2 fold change [1],log2 fold change [2],log2 fold change [3],log2 fold change [4],log2 fold change [5],log2 fold change [6],log2 fold change [7],log2 fold change [8],log2 fold change [9],log2 fold change [10]
UBAP2L (UniProt F8W726),–,–,inactive: 0.083,–,–,inactive: -0.033,inactive: 0.095,inactive: 0.004,–,inactive: -0.066
TSPYL4 (UniProt Q9UJ04),–,–,–,inactive: -0.069,–,–,–,–,–,–
TTC14 (UniProt Q96N46),inactive: -0.054,–,–,–,inactive: -0.076,–,inactive: 0.083,–,–,inactive: -0.097
TUBGCP6 (UniProt Q96RT7),–,inactive: -0.025,–,–,–,–,–,–,–,–
TVP23C (UniProt Q96ET8),–,inactive: -0.021,inactive: -0.023,inactive: -0.003,–,inactive: 0.045,inactive: -0.297,inactive: 0.132,–,inactive: 0.081
TTC26,–,–,–,inactive: 0.006,–,–,–,–,–,–
TUBB8 (UniProt Q3ZCM7),inactive: 0.107,–,–,–,inactive: -0.031,–,–,–,–,–
TXNRD1 isoform 7 (UniProt Q16881),inactive: -0.083,–,–,inactive: -0.214,inactive: 0.065,inactive: 0.21,inactive: -0.171,–,inactive: -0.227,inactive: 0.171
TTC5 (UniProt Q8N0Z6),inactive: 0.12,–,–,–,inactive: 0.196,–,inactive: 0.06,–,–,inactive: -0.182
TXNDC2 (UniProt Q86VQ3),inactive: 0.011,inactive: -0.228,–,inactive: 0.009,inactive: -0.151,–,inactive: -0.069,–,–,inactive: 0
TUBD1 (UniProt Q9UJT1),inactive: 0.132,inactive: 0.079,–,–,inactive: 0.041,–,–,–,–,–
TTC12 isoform 2 (UniProt Q9H892),inactive: -0.087,–,inactive: -0.219,–,inactive: -0.135,–,inactive: -0.233,inactive: 0.097,inactive: 0.019,inactive: -0.16
TUBGCP5 (UniProt Q96RT8),–,–,–,–,–,inactive: 0.045,inactive: -0.082,–,inactive: 0.071,inactive: -0.017
TUBA4A (UniProt C9JJQ8),inactive: -0.035,–,–,inactive: 0.053,inactive: 0.093,–,inactive: 0.039,–,–,inactive: 0.206
TSPAN4 (UniProt O14817),–,–,inactive: 0.11,–,–,–,inactive: -0.069,inactive: 0.043,–,inactive: -0.119
UBE2K (UniProt D6RDM7),inactive: -0.387,–,–,inactive: -0.078,inactive: -0.04,–,inactive: -0.218,–,inactive: 0.098,inactive: -0.409
TWISTNB (UniProt Q3B726),inactive: -0.19,–,inactive: -0.059,inactive: -0.176,inactive: -0.003,inactive: 0.189,–,inactive: -0.364,inactive: -0.107,–
TUBGCP4 (UniProt Q9UGJ1),inactive: 0.023,inactive: 0.062,–,–,inactive: 0.14,–,inactive: -0.053,–,–,inactive: -0.21
TUT4 (UniProt Q5TAX3),inactive: 0.028,–,inactive: 0.07,inactive: -0.349,inactive: 0.004,inactive: -0.032,inactive: -0.161,inactive: 0.094,inactive: 0.322,inactive: -0.063
TTC17 isoform 2 (UniProt Q96AE7),–,–,–,–,–,inactive: -0.049,–,–,–,–

Target,log2 fold change [1],log2 fold change [2],log2 fold change [3],log2 fold change [4],log2 fold change [5],log2 fold change [6],log2 fold change [7],log2 fold change [8],log2 fold change [9],log2 fold change [10]
TSPAN13 (UniProt O95857),inactive: -0.091,–,inactive: -0.125,inactive: 0.03,inactive: -0.109,inactive: 0.002,–,inactive: 0,inactive: -0.166,–
TYK2 (UniProt P29597),inactive: -0.276,–,–,–,inactive: 0.23,–,–,–,–,–
TSPAN17 isoform 4 (UniProt Q96FV3),inactive: 0.28,–,–,–,inactive: -0.444,–,–,–,inactive: -0.042,–
TTC37 (UniProt Q6PGP7),–,inactive: -0.163,–,inactive: -0.07,–,–,inactive: 0.167,–,inactive: -0.776,inactive: 0.167
TUT7 (UniProt Q5VYS8),inactive: 0.177,inactive: -0.119,–,–,inactive: -0.045,inactive: -0.102,inactive: -0.245,–,inactive: 0.444,inactive: 0.381
UBE3B (UniProt Q7Z3V4),inactive: 0.034,inactive: -0.043,–,–,inactive: -0.046,–,–,–,inactive: -0.037,–
U2AF1L5 (UniProt P0DN76),–,inactive: 0.047,inactive: 0.07,inactive: -0.295,–,–,inactive: -0.28,inactive: -0.024,–,inactive: -0.146
TWNK (UniProt Q96RR1),–,inactive: -0.046,–,inactive: -0.114,–,–,–,–,inactive: 0.282,–
TSKU (UniProt Q8WUA8),–,–,–,inactive: 0.082,–,–,–,–,–,–
TTC7B isoform 2 (UniProt Q86TV6),inactive: -0.262,inactive: -0.039,–,inactive: -0.379,inactive: 0,inactive: 0.031,inactive: -0.095,–,–,inactive: -0.18
TUBB2B (UniProt Q9BVA1),inactive: -0.101,inactive: -0.027,–,inactive: -0.017,inactive: -0.039,inactive: 0.063,inactive: -0.003,–,–,inactive: -0.04
TUBB8B (UniProt A6NNZ2),inactive: -0.003,–,inactive: -0.066,inactive: 0.073,inactive: 0.033,–,inactive: 0.059,inactive: -0.086,inactive: -0.026,inactive: -0.06
TYRO3 (UniProt Q06418),inactive: 0.037,–,–,–,inactive: 0.017,–,–,–,inactive: -0.298,–
"UBE2L5, A0A1B0GUS4",–,–,–,inactive: 0.108,–,–,inactive: 0,–,–,inactive: -0.033
TYW5 (UniProt A2RUC4),–,inactive: 0.146,inactive: 0.065,inactive: 0.033,–,inactive: 0.141,–,inactive: -0.166,inactive: -0.068,–
TUSC2 (UniProt O75896),inactive: -0.015,–,inactive: -0.113,–,inactive: 0.102,–,–,inactive: -0.15,inactive: -0.17,–
TTR (UniProt P02766),–,inactive: 0.274,inactive: 0.097,–,–,–,–,inactive: -0.34,–,–
TTK (UniProt P33981),–,–,–,inactive: -0.035,–,–,–,–,inactive: 0.366,–
UBE2L6 (UniProt O14933),–,inactive: -0.084,–,–,–,–,–,–,–,–
TSPYL1 (UniProt Q9H0U9),–,inactive: -0.184,–,–,–,–,–,–,–,–

# Shown bar-delimited: entries from further up.
Target | log2 fold change [1] | log2 fold change [2] | log2 fold change [3] | log2 fold change [4] | log2 fold change [5] | log2 fold change [6] | log2 fold change [7] | log2 fold change [8] | log2 fold change [9] | log2 fold change [10]
TWNK (UniProt Q96RR1) | – | inactive: -0.046 | – | inactive: -0.114 | – | – | – | – | inactive: 0.282 | –
TSKU (UniProt Q8WUA8) | – | – | – | inactive: 0.082 | – | – | – | – | – | –
TTC7B isoform 2 (UniProt Q86TV6) | inactive: -0.262 | inactive: -0.039 | – | inactive: -0.379 | inactive: 0 | inactive: 0.031 | inactive: -0.095 | – | – | inactive: -0.18
TUBB2B (UniProt Q9BVA1) | inactive: -0.101 | inactive: -0.027 | – | inactive: -0.017 | inactive: -0.039 | inactive: 0.063 | inactive: -0.003 | – | – | inactive: -0.04
